Data on one substance can be found in PMC5490171.

Sequences of proteins named here, by UniProt entry; tags and fusion partners are left off.
UniProt Q96RE9: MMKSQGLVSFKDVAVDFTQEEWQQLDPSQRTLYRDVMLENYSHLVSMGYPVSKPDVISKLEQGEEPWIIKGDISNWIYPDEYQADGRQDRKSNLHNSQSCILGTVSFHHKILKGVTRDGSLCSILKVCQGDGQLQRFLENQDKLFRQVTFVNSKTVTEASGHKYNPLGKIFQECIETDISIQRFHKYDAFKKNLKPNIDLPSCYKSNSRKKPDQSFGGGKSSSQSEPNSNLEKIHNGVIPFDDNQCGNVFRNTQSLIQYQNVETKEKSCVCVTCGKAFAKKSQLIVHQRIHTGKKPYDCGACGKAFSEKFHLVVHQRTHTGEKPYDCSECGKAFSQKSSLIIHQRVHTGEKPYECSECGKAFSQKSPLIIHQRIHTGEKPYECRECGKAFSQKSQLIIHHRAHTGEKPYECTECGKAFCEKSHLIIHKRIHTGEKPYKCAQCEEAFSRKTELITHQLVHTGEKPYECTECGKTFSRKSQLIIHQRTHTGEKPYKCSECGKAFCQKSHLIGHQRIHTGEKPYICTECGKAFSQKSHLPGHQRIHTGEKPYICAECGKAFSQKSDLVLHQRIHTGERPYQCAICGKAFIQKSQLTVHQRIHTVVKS
UniProt Q13263: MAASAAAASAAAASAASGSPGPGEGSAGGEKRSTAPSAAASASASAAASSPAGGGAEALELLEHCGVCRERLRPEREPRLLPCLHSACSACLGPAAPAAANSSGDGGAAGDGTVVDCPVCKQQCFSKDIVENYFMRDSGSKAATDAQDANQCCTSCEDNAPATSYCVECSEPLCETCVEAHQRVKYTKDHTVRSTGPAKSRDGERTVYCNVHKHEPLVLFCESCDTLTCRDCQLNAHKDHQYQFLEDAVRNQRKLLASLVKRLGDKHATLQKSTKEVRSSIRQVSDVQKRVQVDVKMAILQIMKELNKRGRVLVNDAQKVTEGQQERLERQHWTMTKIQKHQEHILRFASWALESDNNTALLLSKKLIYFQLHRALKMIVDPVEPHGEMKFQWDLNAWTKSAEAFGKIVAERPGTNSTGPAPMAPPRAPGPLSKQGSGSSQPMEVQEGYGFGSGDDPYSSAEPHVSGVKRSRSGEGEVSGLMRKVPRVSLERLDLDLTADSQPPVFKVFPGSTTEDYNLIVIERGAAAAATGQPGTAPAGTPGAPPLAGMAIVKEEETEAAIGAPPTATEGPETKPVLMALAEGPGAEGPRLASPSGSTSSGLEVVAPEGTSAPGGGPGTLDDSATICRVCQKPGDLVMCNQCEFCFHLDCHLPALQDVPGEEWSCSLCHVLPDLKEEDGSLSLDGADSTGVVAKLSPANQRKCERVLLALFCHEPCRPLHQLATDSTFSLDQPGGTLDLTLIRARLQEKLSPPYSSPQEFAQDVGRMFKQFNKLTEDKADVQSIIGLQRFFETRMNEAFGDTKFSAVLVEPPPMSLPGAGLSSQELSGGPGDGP

For the test, the target named is Flag-ZNF300 (human) (UniProt Q96RE9). Put plainly: co-IP; HEK293T cells co-transfected with Flag-ZNF300 and HA-KAP1, lysed after 24 h; lysate incubated with Flag monoclonal antibody and GammaBind Plus-Sepharose overnight at 4 °C, beads washed five times with lysis buffer; SDS-PAGE and western blot.

These are yes or no findings as the source states them, for the method shown. Binding seen in cells or lysates may run through a third protein. Some binding calls cover weakened binding; strength is not graded here.

For the substance HA-KAP1 (from UniProt Q13263 1-835), the binding entry is listed as “binds”.
